# Source: the supplement of paper PMC8728848
# The list shows a part of the results.
# Legend:
# Assay in all cases: glycan array binding signal (z-score within array); higher = stronger binding
# Conditions in all cases: glycan notation: IUPAC condensed, linker removed; mutation: D21K
# Fuc(a1-2)Gal = biological target: Fuc(a1-2)Gal
# Procedure, shortened: (§1)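 The binding signal is a Z-score computed within each array. Data were drawn from 3228 arrays in the Consortium for Functional Glycomics database, restricted to those with a known protein sequence. Scores were averaged over arrays of the same protein sequence at different concentrations or buffers, and over linkers, and negative values can be taken as non-binding.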
# Fuc(a1-2)Gal(b1-3)GalNAc = biological target: Fuc(a1-2)Gal(b1-3)GalNAc
# Procedure, shortened: as §1
# [1] = biological target: Fuc(a1-2)Gal(b1-3)GalNAc(a1-3)[Fuc(a1-2)]Gal(b1-4)Glc
# Procedure, shortened: as §1
# [2] = biological target: Fuc(a1-2)Gal(b1-3)GalNAc(a1-3)[Fuc(a1-2)]Gal(b1-4)GlcNAc
# Procedure, shortened: as §1
# [3] = biological target: Fuc(a1-2)Gal(b1-3)GalNAc(b1-3)Gal
# Procedure, shortened: as §1
# [4] = biological target: Fuc(a1-2)Gal(b1-3)GalNAc(b1-3)Gal(a1-4)Gal(b1-4)Glc
# Procedure, shortened: as §1
# [5] = biological target: Fuc(a1-2)Gal(b1-3)GalNAc(b1-4)[Neu5Ac(a2-3)]Gal(b1-4)Glc
# Procedure, shortened: as §1
# Fuc(a1-2)Gal(b1-3)GlcNAc = biological target: Fuc(a1-2)Gal(b1-3)GlcNAc
# Procedure, shortened: as §1
# [6] = biological target: Fuc(a1-2)Gal(b1-3)GlcNAc(b1-2)Man(a1-3)[Fuc(a1-2)Gal(b1-3)GlcNAc(b1-2)Man(a1-6)]Man(b1-4)GlcNAc(b1-4)GlcNAc
# Procedure, shortened: as §1
# [7] = biological target: Fuc(a1-2)Gal(b1-3)GlcNAc(b1-2)Man(a1-3)[Fuc(a1-2)Gal(b1-3)GlcNAc(b1-2)Man(a1-6)]Man(b1-4)GlcNAc(b1-4)[Fuc(a1-6)]GlcNAc
# Procedure, shortened: as §1
# [8] = biological target: Fuc(a1-2)Gal(b1-3)GlcNAc(b1-3)Gal(b1-4)Glc
# Procedure, shortened: as §1
# [9] = biological target: Fuc(a1-2)Gal(b1-3)GlcNAc(b1-3)GalNAc
# Procedure, shortened: as §1
# [10] = biological target: Fuc(a1-2)Gal(b1-3)GlcNAc(b1-3)[Fuc(a1-2)Gal(b1-3)GlcNAc(b1-6)]GalNAc
# Procedure, shortened: as §1
# [11] = biological target: Fuc(a1-2)Gal(b1-3)GlcNAc(b1-3)[Gal(b1-4)GlcNAc(b1-6)]Gal(b1-4)Glc
# Procedure, shortened: as §1
# [12] = biological target: Fuc(a1-2)Gal(b1-3)GlcNAc(b1-3)[Neu5Ac(a2-6)Gal(b1-4)GlcNAc(b1-6)]Gal(b1-4)Glc
# Procedure, shortened: as §1
# [13] = biological target: Fuc(a1-2)Gal(b1-3)GlcNAc6S
# Procedure, shortened: as §1
# [14] = biological target: Fuc(a1-2)Gal(b1-3)[Fuc(a1-4)]GlcNAc
# Procedure, shortened: as §1
# [15] = biological target: Fuc(a1-2)Gal(b1-3)[Fuc(a1-4)]GlcNAc(b1-2)Man(a1-3)[Fuc(a1-2)Gal(b1-3)[Fuc(a1-4)]GlcNAc(b1-2)Man(a1-3)]Man(b1-4)GlcNAc(b1-4)GlcNAc
# Procedure, shortened: as §1
# [16] = biological target: Fuc(a1-2)Gal(b1-3)[Fuc(a1-4)]GlcNAc(b1-2)Man(a1-3)[Fuc(a1-2)Gal(b1-3)[Fuc(a1-4)]GlcNAc(b1-2)Man(a1-6)]Man(b1-4)GlcNAc(b1-4)[Fuc(a1-6)]GlcNAc(b1-4)[Fuc(a1-6)]GlcNAc
# Procedure, shortened: as §1
# [17] = biological target: Fuc(a1-2)Gal(b1-3)[Fuc(a1-4)]GlcNAc(b1-3)[Fuc(a1-3)[Gal(b1-4)]GlcNAc(b1-6)]Gal(b1-4)Glc
# Procedure, shortened: as §1
# [18] = biological target: Fuc(a1-2)Gal(b1-3)[Fuc(a1-4)]GlcNAc(b1-3)[Gal(b1-4)GlcNAc(b1-6)]Gal(b1-4)Glc
# Procedure, shortened: as §1
# [19] = biological target: Fuc(a1-2)Gal(b1-4)Fuc(a1-3)]GlcNAc(b1-2)Man(a1-3)[Fuc(a1-2)Gal(b1-4)[Fuc(a1-3)]GlcNAc(b1-2)Man(a1-6)]Man(b1-4)GlcNAc(b1-4)GlcNAc
# Procedure, shortened: as §1
# Fuc(a1-2)Gal(b1-4)Glc = biological target: Fuc(a1-2)Gal(b1-4)Glc
# Procedure, shortened: as §1
# Fuc(a1-2)Gal(b1-4)Glc6S = biological target: Fuc(a1-2)Gal(b1-4)Glc6S
# Procedure, shortened: as §1
# Fuc(a1-2)Gal(b1-4)GlcNAc = biological target: Fuc(a1-2)Gal(b1-4)GlcNAc
# Procedure, shortened: as §1
# [20] = biological target: Fuc(a1-2)Gal(b1-4)GlcNAc(b1-2)Man
# Procedure, shortened: as §1
# [21] = biological target: Fuc(a1-2)Gal(b1-4)GlcNAc(b1-2)Man(a1-3)[Fuc(a1-2)Gal(b1-4)GlcNAc(b1-2)Man(a1-6)]Man(b1-4)GlcNAc(b1-4)GlcNAc
# Procedure, shortened: as §1
# [22] = biological target: Fuc(a1-2)Gal(b1-4)GlcNAc(b1-2)Man(a1-3)[Fuc(a1-2)Gal(b1-4)GlcNAc(b1-2)Man(a1-6)]Man(b1-4)GlcNAc(b1-4)[Fuc(a1-6)]GlcNAc
# Procedure, shortened: as §1
# [23] = biological target: Fuc(a1-2)Gal(b1-4)GlcNAc(b1-2)[Fuc(a1-2)Gal(b1-4)GlcNAc(b1-4)]Man(a1-3)[Fuc(a1-2)Gal(b1-4)GlcNAc(b1-2)Man(a1-6)]Man(b1-4)GlcNAc(b1-4)GlcNAc
# Procedure, shortened: as §1
# [24] = biological target: Fuc(a1-2)Gal(b1-4)GlcNAc(b1-3)Gal(b1-4)GlcNAc
# Procedure, shortened: as §1
# [25] = biological target: Fuc(a1-2)Gal(b1-4)GlcNAc(b1-3)Gal(b1-4)GlcNAc(b1-2)Man(a1-3)[Fuc(a1-2)Gal(b1-4)GlcNAc(b1-3)Gal(b1-4)GlcNAc(b1-2)Man(a1-6)]Man(b1-4)GlcNAc(b1-4)GlcNAc
# Procedure, shortened: as §1
# [26] = biological target: Fuc(a1-2)Gal(b1-4)GlcNAc(b1-3)Gal(b1-4)GlcNAc(b1-3)Gal(b1-4)GlcNAc
# Procedure, shortened: as §1
# [27] = biological target: Fuc(a1-2)Gal(b1-4)GlcNAc(b1-3)GalNAc
# Procedure, shortened: as §1
# [28] = biological target: Fuc(a1-2)Gal(b1-4)GlcNAc(b1-3)[Fuc(a1-2)Gal(b1-4)GlcNAc(b1-6)]GalNAc
# Procedure, shortened: as §1
# [29] = biological target: Fuc(a1-2)Gal(b1-4)GlcNAc(b1-3)[Fuc(a1-3)[Gal(b1-4)]GlcNAc(b1-6)]Gal(b1-4)Glc
# Procedure, shortened: as §1
# [30] = biological target: Fuc(a1-2)Gal(b1-4)GlcNAc(b1-6)GalNAc
# Procedure, shortened: as §1
# [31] = biological target: Fuc(a1-2)Gal(b1-4)GlcNAc6S
# Procedure, shortened: as §1
binder,measurement,setting,value
KILRGVCKKIMRTFLRRISKKILTGKK [C7A (Sus scrofa)],glycan array binding signal (z-score),Fuc(a1-2)Gal,-0.691
same,glycan array binding signal (z-score),Fuc(a1-2)Gal(b1-3)GalNAc,-0.125
same,glycan array binding signal (z-score),[1],-0.986
same,glycan array binding signal (z-score),[2],-0.784
same,glycan array binding signal (z-score),[3],-0.779
same,glycan array binding signal (z-score),[4],1.33
same,glycan array binding signal (z-score),[5],0.257
same,glycan array binding signal (z-score),Fuc(a1-2)Gal(b1-3)GlcNAc,-0.76
same,glycan array binding signal (z-score),[6],0.451
same,glycan array binding signal (z-score),[7],0.03
same,glycan array binding signal (z-score),[8],0.012
same,glycan array binding signal (z-score),[9],-0.56
same,glycan array binding signal (z-score),[10],-1.07
same,glycan array binding signal (z-score),[11],0.374
same,glycan array binding signal (z-score),[12],-0.789
same,glycan array binding signal (z-score),[13],0.325
same,glycan array binding signal (z-score),[14],-0.297
same,glycan array binding signal (z-score),[15],0.792
same,glycan array binding signal (z-score),[16],-0.293
same,glycan array binding signal (z-score),[17],-0.938
same,glycan array binding signal (z-score),[18],-0.628
same,glycan array binding signal (z-score),[19],-0.438
same,glycan array binding signal (z-score),Fuc(a1-2)Gal(b1-4)Glc,0.013
same,glycan array binding signal (z-score),Fuc(a1-2)Gal(b1-4)Glc6S,0.173
same,glycan array binding signal (z-score),Fuc(a1-2)Gal(b1-4)GlcNAc,-0.119
same,glycan array binding signal (z-score),[20],0.667
same,glycan array binding signal (z-score),[21],-0.685
same,glycan array binding signal (z-score),[22],-0.904
same,glycan array binding signal (z-score),[23],-0.282
same,glycan array binding signal (z-score),[24],-0.661
same,glycan array binding signal (z-score),[25],0.536
same,glycan array binding signal (z-score),[26],1.2
same,glycan array binding signal (z-score),[27],0.98
same,glycan array binding signal (z-score),[28],0.75
same,glycan array binding signal (z-score),[29],-0.99
same,glycan array binding signal (z-score),[30],-0.597
same,glycan array binding signal (z-score),[31],0.072

# Laid out differently: results already given
binder | measurement | setting | value
KILRGVCKKIMRTFLRRISKKILTGKK [C7A (Sus scrofa)] | glycan array binding signal (z-score) | [20] | 0.667
same | glycan array binding signal (z-score) | [21] | -0.685
same | glycan array binding signal (z-score) | [22] | -0.904
same | glycan array binding signal (z-score) | [23] | -0.282
same | glycan array binding signal (z-score) | [24] | -0.661
same | glycan array binding signal (z-score) | [25] | 0.536
same | glycan array binding signal (z-score) | [26] | 1.2
same | glycan array binding signal (z-score) | [27] | 0.98
same | glycan array binding signal (z-score) | [28] | 0.75
